From the supplement of paper PMC6078165
Values are relative to the signal before dosing, not to a vehicle control; the signal also falls without drug.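 Labels refer to human fibroblasts, largely primary: uterine (C12385, HUF), lung (H6013), bone (Hs27A), adrenal (HADF), skin (WS1), plus mammary HMF and breast cancer-associated Hs343T. Cancer lines are basal-like or mesenchymal-like triple-negative breast cancer. The paper counts as hits responses shifting over 3x the replicate standard deviation. The tissue of the other fibroblasts is not given here.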

Test system: MDAMB231
Test: relative JC-1 red fluorescence (viability) vs pre-drug, coculture with fibroblast (fraction); higher = more viable cancer cells
Description: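 JC-1 labelled TNBC cells cocultured 1:1 (1,500 cells each) with CellTrace Violet stained primary or stromal fibroblasts in 384-well plates in FluoroBrite medium, treated with one of 42 anticancer drugs at 0.1, 1, 10 or 100 uM. JC-1 red fluorescence (mitochondrial integrity in cancer cells only) was read by plate reader every 8 h for 72 h. Values are normalised to each well's pre-drug value. The stock of one drug was tenfold lower, so its dose labels may be too high.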

CO[C@@]12[C@H](COC(N)=O)C3=C(C(=O)C(C)=C(N)C3=O)N1C[C@@H]1N[C@@H]12 [Mitomycin C]
relative JC-1 red fluorescence
Conditions	8 h	16 h	24 h	32 h	40 h	48 h	56 h	64 h	72 h
0.1 µM, coculture fibroblast: C12385	0.748	0.726	0.603	0.584	0.523	0.49	0.436	0.423	0.395
0.1 µM, coculture fibroblast: H6013	0.901	0.841	0.7991	0.766	0.715	0.67	0.652	0.613	0.56
0.1 µM, coculture fibroblast: H6019	0.742	0.662	0.575	0.541	0.464	0.425	0.36	0.314	0.266
0.1 µM, coculture fibroblast: H6076	0.911	0.7975	0.7226	0.681	0.619	0.578	0.528	0.498	0.469
0.1 µM, coculture fibroblast: H6231	0.914	0.8107	0.72	0.6551	0.59356	0.558	0.515	0.492	0.465
0.1 µM, coculture fibroblast: HADF	0.882	0.841	0.7779	0.7292	0.686	0.627	0.607	0.58	0.543
0.1 µM, coculture fibroblast: HCFa	0.894	0.831	0.793	0.763	0.722	0.672	0.661	0.631	0.581
0.1 µM, coculture fibroblast: HCPF	0.9121	0.806	0.6986	0.6649	0.5976	0.551	0.498	0.46	0.43
0.1 µM, coculture fibroblast: HHSteC	0.9072	0.833	0.779	0.731	0.663	0.627	0.583	0.557	0.497
0.1 µM, coculture fibroblast: HMF	0.895	0.832	0.788	0.764	0.741	0.709	0.68	0.665	0.652
0.1 µM, coculture fibroblast: HPFa	0.945	0.8773	0.813	0.761	0.727	0.676	0.616	0.571	0.516
0.1 µM, coculture fibroblast: HUF	0.823	0.689	0.7073	0.57956	0.518	0.49647	0.44	0.431	0.412
0.1 µM, coculture fibroblast: Hs5	0.929	0.823	0.741	0.692	0.643	0.586	0.549	0.52	0.4986
0.1 µM, coculture fibroblast: Hs27A	0.8754	0.803	0.7454	0.715	0.666	0.593	0.612	0.592	0.554
0.1 µM, coculture fibroblast: Hs343T	0.8916	0.804	0.721	0.687	0.626	0.571	0.515	0.479	0.451
0.1 µM, coculture fibroblast: WS1	0.7369	0.674	0.53295	0.5132	0.456	0.417	0.362	0.341	0.309
1 µM, coculture fibroblast: C12385	0.7335	0.695	0.641	0.604	0.53	0.52	0.493	0.492	0.474
1 µM, coculture fibroblast: H6013	0.873	0.807	0.762	0.728	0.662	0.629	0.588	0.554	0.511
1 µM, coculture fibroblast: H6019	0.748	0.687	0.626	0.561	0.488	0.46	0.398	0.355	0.314
1 µM, coculture fibroblast: H6076	0.917	0.826	0.76	0.724	0.666	0.617	0.577	0.534	0.504
1 µM, coculture fibroblast: H6231	0.915	0.782	0.7075	0.659	0.588	0.549	0.501	0.48	0.451
1 µM, coculture fibroblast: HADF	0.846	0.801	0.761	0.728	0.69919	0.673	0.6479	0.6273	0.579
1 µM, coculture fibroblast: HCFa	0.85219	0.8023	0.76	0.725	0.675	0.624	0.583	0.537	0.489
1 µM, coculture fibroblast: HCPF	0.894	0.765	0.702	0.668	0.601	0.561	0.516	0.4867	0.4644
1 µM, coculture fibroblast: HHSteC	0.8691	0.831	0.79	0.744	0.7	0.664	0.619	0.586	0.537
1 µM, coculture fibroblast: HMF	0.874	0.75	0.7	0.6618	0.6208	0.584	0.563	0.539	0.511
1 µM, coculture fibroblast: HPFa	0.956	0.92	0.89	0.841	0.833	0.798	0.742	0.709	0.661
1 µM, coculture fibroblast: HUF	0.825	0.702	0.7	0.586	0.517	0.495	0.451	0.44	0.4265
1 µM, coculture fibroblast: Hs5	0.892	0.768	0.689	0.625	0.569	0.508	0.478	0.451	0.426
1 µM, coculture fibroblast: Hs27A	0.8707	0.815	0.766	0.745	0.698	0.6472	0.6514	0.632	0.582
1 µM, coculture fibroblast: Hs343T	0.8847	0.735	0.665	0.608	0.558	0.505	0.462	0.438	0.408
1 µM, coculture fibroblast: WS1	0.7157	0.649	0.584	0.526	0.49	0.465	0.427	0.418	0.4
10 µM, coculture fibroblast: C12385	0.7735	0.752	0.617	0.632	0.5799	0.555	0.515	0.515	0.509
10 µM, coculture fibroblast: H6013	0.8862	0.8125	0.7827	0.75482	0.708	0.661	0.6398	0.6084	0.573
10 µM, coculture fibroblast: H6019	0.749	0.672	0.594	0.587	0.52	0.495	0.452	0.435	0.408
10 µM, coculture fibroblast: H6076	0.912	0.8	0.726	0.7	0.659	0.625	0.602	0.579	0.565
10 µM, coculture fibroblast: H6231	0.939	0.842	0.752	0.716	0.658	0.624	0.591	0.574	0.557
10 µM, coculture fibroblast: HADF	0.88	0.823	0.784	0.746	0.7	0.644	0.634	0.616	0.57
10 µM, coculture fibroblast: HCFa	0.903	0.832	0.802	0.772	0.705	0.656	0.624	0.6	0.555
10 µM, coculture fibroblast: HCPF	0.9294	0.831	0.759	0.74	0.697	0.671	0.645	0.62	0.613
10 µM, coculture fibroblast: HHSteC	0.9028	0.8563	0.803	0.777	0.731	0.703	0.664	0.642	0.601
10 µM, coculture fibroblast: HMF	0.927	0.811	0.734	0.7	0.65	0.618	0.574	0.546	0.522
10 µM, coculture fibroblast: HPFa	0.93881	0.874	0.8064	0.7545	0.717	0.6777	0.6322	0.594	0.5519
10 µM, coculture fibroblast: HUF	0.834	0.724	0.703	0.607	0.549	0.539	0.498	0.497	0.49
10 µM, coculture fibroblast: Hs5	0.846	0.864	0.785	0.737	0.693	0.635	0.592	0.56	0.537
10 µM, coculture fibroblast: Hs27A	0.8721	0.816	0.766	0.744	0.7	0.635	0.657	0.634	0.595
10 µM, coculture fibroblast: Hs343T	0.9523	0.828	0.737	0.6963	0.6341	0.5824	0.526	0.4923	0.4613
10 µM, coculture fibroblast: WS1	0.7658	0.707	0.594	0.5579	0.5209	0.49688	0.45447	0.4515	0.438
100 µM, coculture fibroblast: C12385	0.715	0.653	0.717	0.626	0.483	0.435	0.433	0.456	0.459
100 µM, coculture fibroblast: H6013	0.8576	0.8055	0.765	0.729	0.667	0.666	0.626	0.605	0.57
100 µM, coculture fibroblast: H6019	0.703	0.648	0.663	0.598	0.572	0.576	0.558	0.572	0.556
100 µM, coculture fibroblast: H6076	0.849	0.8125	0.8149	0.824	0.826	0.82	0.849	0.854	0.875
100 µM, coculture fibroblast: H6231	0.852	0.8	0.794	0.796	0.785	0.778	0.765	0.769	0.752
100 µM, coculture fibroblast: HADF	0.8465	0.806	0.76711	0.724	0.6762	0.651	0.607	0.597	0.542
100 µM, coculture fibroblast: HCFa	0.8418	0.785	0.734	0.6721	0.6244	0.6121	0.5888	0.577	0.5449
100 µM, coculture fibroblast: HCPF	0.856	0.767	0.7072	0.686	0.633	0.616	0.6	0.582	0.574
100 µM, coculture fibroblast: HHSteC	0.8526	0.813	0.752	0.674	0.597	0.582	0.538	0.515	0.489
100 µM, coculture fibroblast: HMF	0.84	0.762	0.738	0.71	0.6774	0.6503	0.6501	0.6486	0.6399
100 µM, coculture fibroblast: HPFa	0.87	0.827	0.768	0.69	0.647	0.632	0.582	0.566	0.539
100 µM, coculture fibroblast: HUF	0.775	0.686	0.7138	0.599	0.565	0.5712	0.5352	0.559	0.549
100 µM, coculture fibroblast: Hs5	0.8447	0.783	0.759	0.721	0.6788	0.6331	0.624	0.6	0.579
100 µM, coculture fibroblast: Hs27A	0.853	0.814	0.7861	0.735	0.696	0.695	0.663	0.655	0.611
100 µM, coculture fibroblast: Hs343T	0.856	0.78	0.743	0.723	0.667	0.627	0.595	0.588	0.567
100 µM, coculture fibroblast: WS1	0.6773	0.617	0.648	0.578	0.56	0.577	0.565	0.596	0.594
